Data taken from publication PMC7819943, “Rice protein-binding microarrays: a tool to detect cis-acting elements near promoter regions in rice”.
Some of the results follow.

Each sequence was assayed against T1, OsSMF1 (Oryza sativa, UniProt Q6ZLB0 1-436) (assay: protein-binding microarray (RPBM); PBS, 2% BSA, 51.3 ng/ul salmon testes DNA, 50 uM zinc acetate, 200 nM TF, 25 C, 1 h; high values mean tight binding). Details: protein: recombinant; tags: N-terminal polyhistidine and DsRed monomer fusion (pET32a); chain copies: 2; label: CyDye5-dUTP incorporated in the synthesized complementary strand; 3' TTTTT single-stranded linker to array surface; dsDNA, one strand shown.
T1 sequence: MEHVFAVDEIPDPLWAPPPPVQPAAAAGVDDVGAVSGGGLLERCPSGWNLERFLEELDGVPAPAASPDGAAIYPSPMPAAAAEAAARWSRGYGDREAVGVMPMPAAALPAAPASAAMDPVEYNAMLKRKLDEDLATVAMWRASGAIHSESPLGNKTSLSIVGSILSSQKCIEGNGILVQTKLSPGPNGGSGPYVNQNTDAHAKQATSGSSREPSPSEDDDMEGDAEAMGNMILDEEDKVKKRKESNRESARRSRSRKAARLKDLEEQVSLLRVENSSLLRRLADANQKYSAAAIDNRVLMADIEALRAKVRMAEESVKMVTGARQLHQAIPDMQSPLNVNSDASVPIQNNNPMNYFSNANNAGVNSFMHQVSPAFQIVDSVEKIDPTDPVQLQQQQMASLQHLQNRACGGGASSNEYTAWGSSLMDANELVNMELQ
Method in brief: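 Transcription factors were each fused at the N-terminus to a polyhistidine tag plus DsRed and expressed in E. coli BL21-CodonPlus before Ni–NTA purification. Binding to a double-stranded custom Agilent array was carried out with 200 nM protein at 25 °C for 1 h in PBS, 2% BSA, salmon testes DNA and 50 µM zinc acetate. The binding signal is per-feature fluorescence intensity, in arbitrary units, on an Axon 4000B scanner.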

In order of falling binding signal:
1. CGGCACCACCAGTTGTCCGGCATGCGATGTGGTACCGAGACGGAGTCACCTAGTGCAG  49300 fluorescence intensity (a.u.)
2. TGGATCCGGCCCTGCATGTCCGTCCTCGCCGGTGGGCGCTCGGAGTCACCTAGTGCAG  41400 fluorescence intensity (a.u.)
3. GAATCTAGTAGCTTGCATCCTTTACATCTTCTCATCCTGTCGGAGTCACCTAGTGCAG  32700 fluorescence intensity (a.u.)
4. TGCCATTTTAAACCATACCGTTGTTTGGTAAAATTAACAACGGAGTCACCTAGTGCAG  31500 fluorescence intensity (a.u.)
5. TGGACGCCTAGAAGCTACAAATCCATGGCGGCCATAGATGCGGAGTCACCTAGTGCAG  26800 fluorescence intensity (a.u.)
6. TATCAGTAAGCTAAATTCTGTGAAGTTTTGGTAATGTTGGCGGAGTCACCTAGTGCAG  20000 fluorescence intensity (a.u.)
7. GCGATGCCGGCGGCCGCCACGTCACGCGCCTCGCCATCCACGGAGTCACCTAGTGCAG  17200 fluorescence intensity (a.u.)
8. AATTCTAAACAAGGCTTGGTTACCCAACATTTTGATATGTCGGAGTCACCTAGTGCAG  14000 fluorescence intensity (a.u.)
9. CCGCCGCCTCCGCCGCGAAGCGTACACGTCAGCGAGCGAGCGGAGTCACCTAGTGCAG  13900 fluorescence intensity (a.u.)
10. CAATAAACAAATCAAAATAAAGCTAACACGTGGCATGCCACGGAGTCACCTAGTGCAG  13700 fluorescence intensity (a.u.)
11. CGCGGCCGGCTCTCCCTATACAAGCGCCACGTCGCCGGCGCGGAGTCACCTAGTGCAG  8560 fluorescence intensity (a.u.)
12. CGATTTTCCACCGTTCGCATACGTGGACCGCCCGGGCCAACGGAGTCACCTAGTGCAG  7620 fluorescence intensity (a.u.)
13. ATCTCTTACTACTCGTTTCACTACTAGTATTTGTCAGTTTCGGAGTCACCTAGTGCAG  6320 fluorescence intensity (a.u.)
14. GCATATTCTGAAAATTCTCCTGCCCGACCGACGTCAGCGACGGAGTCACCTAGTGCAG  5750 fluorescence intensity (a.u.)
15. AAAGCCGAGAGCCCTTTCGGCTGCCCACGTCCCCACTCCTCGGAGTCACCTAGTGCAG  5130 fluorescence intensity (a.u.)
16. AGCTCATCCATGCAGCTGTGACGCTGACGCAGATCAACCACGGAGTCACCTAGTGCAG  5010 fluorescence intensity (a.u.)
17. AATATATAATGAGTCAAGCGTCATGTCTGTCGCAGTGTAACGGAGTCACCTAGTGCAG  4800 fluorescence intensity (a.u.)
18. AATTAGTCCATTAGTGTCATCAGCATGCTTAACAAGAACTCGGAGTCACCTAGTGCAG  4700 fluorescence intensity (a.u.)
19. GGTGGTTGGTCTTGTCATTGCTCGTGCATGTCAGCACAGTCGGAGTCACCTAGTGCAG  4580 fluorescence intensity (a.u.)
20. GTGATGCCGCTCTCTCTTTCTTGCGTGTACTTCCGGGTGGCGGAGTCACCTAGTGCAG  4460 fluorescence intensity (a.u.)
21. AGCAGATGATCCTTCACCACGTACGCCAAGTAGCGGACAGCGGAGTCACCTAGTGCAG  4330 fluorescence intensity (a.u.)
22. GGTGGTGGGTAGGTGCTGTTCTTATTTGGATCCTAAGACTCGGAGTCACCTAGTGCAG  4300 fluorescence intensity (a.u.)
23. CCCAGACGCCCCATGCTGAATTCACCGGCGGCGAGATGGACGGAGTCACCTAGTGCAG  4290 fluorescence intensity (a.u.)
24. GCGGTATGACAACTGTGTAGCCTAGTCATCGTAGTAGCCACGGAGTCACCTAGTGCAG  4280 fluorescence intensity (a.u.)
25. CATCAAGTCGCTGCCGTCGGTGATGACGGTGCGCAGCTGTCGGAGTCACCTAGTGCAG  4270 fluorescence intensity (a.u.)
26. AATTTAGGATCCACGTATTACAGATGGTGAGATTGGTAATCGGAGTCACCTAGTGCAG  4210 fluorescence intensity (a.u.)
27. ATCTACTTATGTCACCCACTCTTAGCCAATATCATTCGCTCGGAGTCACCTAGTGCAG  4110 fluorescence intensity (a.u.)
28. ACTTTCCATAAGGTTGTAACGCCACCTGTGCAGCCACCAACGGAGTCACCTAGTGCAG  4050 fluorescence intensity (a.u.)
29. TGCTGCAGCGTGGCGCAGAGCCGATTTGCTGCGCTGTCGCCGGAGTCACCTAGTGCAG  3970 fluorescence intensity (a.u.)
30. GCCTGTGCCGTTGGATTGTAATCAACGGCTAGGATGCTTGCGGAGTCACCTAGTGCAG  3920 fluorescence intensity (a.u.)
31. GCTCCGGGTCTGGGAACCTGCTGTCACAGCCGTGACCGTGCGGAGTCACCTAGTGCAG  3820 fluorescence intensity (a.u.)
32. GAAGATTTGCGGGTGAGGATCTATTTTGTACCATTCCCTTCGGAGTCACCTAGTGCAG  3580 fluorescence intensity (a.u.)
33. TTACTCTGACTCCCTAGCTAGCACAGGTGGTCGTACGTTGCGGAGTCACCTAGTGCAG  3480 fluorescence intensity (a.u.)
34. ATTGACTTATTGTGATGAATTATCTGGTACACGTCTCTAACGGAGTCACCTAGTGCAG  3390 fluorescence intensity (a.u.)
35. CACACCATCAATCACACGTACGAGCAGTTTCCGCTTCTTTCGGAGTCACCTAGTGCAG  3370 fluorescence intensity (a.u.)
36. TTATGTGATAGGTTCTCCGTGATCGCCGCCGACGCCGACGCGGAGTCACCTAGTGCAG  3370 fluorescence intensity (a.u.)
37. ACTTGTCGCTAGCTCGTCATGCTGCTCCTCTTCATTGTGCCGGAGTCACCTAGTGCAG  3310 fluorescence intensity (a.u.)
38. TGAAGTAGGTGATCATCAGCATCACTAGTTCAGTACTTAACGGAGTCACCTAGTGCAG  3280 fluorescence intensity (a.u.)
39. ATGCTTATTCAGATTTGTTTGGGGACATAAATCCTGATGACGGAGTCACCTAGTGCAG  3270 fluorescence intensity (a.u.)
40. GTAACAGTAAACTGGTGAGTATAGCTTGATACATTGAGCACGGAGTCACCTAGTGCAG  3210 fluorescence intensity (a.u.)
41. CATCTCCAGCCACGTATAAACCCAACCAAACACCCTCCCCCGGAGTCACCTAGTGCAG  3180 fluorescence intensity (a.u.)
42. AAAGTTAACTTGATCAAACTTGCTTAACATAAGATGTGATCGGAGTCACCTAGTGCAG  3160 fluorescence intensity (a.u.)
